Laboratory results reported in patent US20170340700A1.
Results are given in words; binding and its absence hold for the method and conditions named. In cells and extracts the contact can be indirect. Some results given as binding are weak or reduced against the parent protein; the word gives no strength.

B1: c-JUN, P05412 1-331 (protein, UniProt P05412 1-331, looked up)
chain: MTAKMETTFYDDALNASFLPSESGPYGYSNPKILKQSMTLNLADPVGSLKPHLRAKNSDLLTSPDVGLLKLASPELERLIIQSSNGHITTTPTPTQFLCPKNVTDEQEGFAEGFVRALAELHSQNTLPSVTSAAQPVNGAGMVAPAVASVAGGSGSGGFSASLHSEPPVYANLSNFNPGALSSGGGAPSYGAAGLAFPAQPQQQQQPPHHLPQQMPVQHPRLQALKEEPQTVPEMPGETPPLSPIDMESQERIKAERKRMRNRIAASKCRKRKLERIARLEEKVKTLKAQNSELASTANMLREQVAQLKQKVMNHVNSGCQLMLTQQLQTF

Columns and labels:
[1] = biological target: T1, FRA1 (UniProt P15407); experiment: coimmunoprecipitation with anti-cJUN antibody from MB231 nuclear extracts, Western blot for FRA1
T1 sequence (looked up): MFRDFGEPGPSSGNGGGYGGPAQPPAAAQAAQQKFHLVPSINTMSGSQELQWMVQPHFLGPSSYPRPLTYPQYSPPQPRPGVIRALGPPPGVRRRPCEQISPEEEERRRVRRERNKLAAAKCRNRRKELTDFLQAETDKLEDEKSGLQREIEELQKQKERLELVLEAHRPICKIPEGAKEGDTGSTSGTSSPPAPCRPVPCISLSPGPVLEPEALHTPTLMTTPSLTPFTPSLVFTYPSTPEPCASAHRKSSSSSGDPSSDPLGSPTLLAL

[2] = biological target: T2, FBJ murine osteosarcoma viral oncogene homolog B (FOSB) (human), P53539; experiment: coimmunoprecipitation with anti-cJUN antibody from nuclear extracts of TP4-treated MB231 cells, Western blot for FOSB; settings: remark: other sources report otherwise
T2 chain: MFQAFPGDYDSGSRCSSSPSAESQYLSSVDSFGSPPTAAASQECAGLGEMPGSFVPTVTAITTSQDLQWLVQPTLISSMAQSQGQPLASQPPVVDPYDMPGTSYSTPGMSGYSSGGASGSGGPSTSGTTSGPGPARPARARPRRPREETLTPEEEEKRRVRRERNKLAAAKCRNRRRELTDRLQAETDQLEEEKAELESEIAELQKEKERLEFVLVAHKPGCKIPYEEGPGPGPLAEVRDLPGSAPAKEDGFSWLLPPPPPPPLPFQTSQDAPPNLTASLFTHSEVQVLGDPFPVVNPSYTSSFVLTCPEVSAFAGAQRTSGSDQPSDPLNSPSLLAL

Molecule	binding [1]	binding [2]
c-JUN (from UniProt P05412 1-331)	binds	–
B1	–	binds
